B1: CBR1 (carbonyl reductase 1) (enzyme, UniProt P16152 1-277)
chain: MSSGIHVALVTGGNKGIGLAIVRDLCRLFSGDVVLTARDVTRGQAAVQQLQAEGLSPRFHQLDIDDLQSIRALRDFLRKEYGGLDVLVNNAGIAFKVADPTPFHIQAEVTMKTNFFGTRDVCTELLPLIKPQGRVVNVSSIMSVRALKSCSPELQQKFRSETITEEELVGLMNKFVEDTKKGVHQKEGWPSSAYGVTKIGVTVLSRIHARKLSEQRKGDKILLNACCPGWVRTDMAGPKATKSPEEGAETPVYLALLPPDAEGPHGQFVSEKRVEQW

The chains behind the UniProt entries cited, without tags or fusion partners.
UniProt Q15760: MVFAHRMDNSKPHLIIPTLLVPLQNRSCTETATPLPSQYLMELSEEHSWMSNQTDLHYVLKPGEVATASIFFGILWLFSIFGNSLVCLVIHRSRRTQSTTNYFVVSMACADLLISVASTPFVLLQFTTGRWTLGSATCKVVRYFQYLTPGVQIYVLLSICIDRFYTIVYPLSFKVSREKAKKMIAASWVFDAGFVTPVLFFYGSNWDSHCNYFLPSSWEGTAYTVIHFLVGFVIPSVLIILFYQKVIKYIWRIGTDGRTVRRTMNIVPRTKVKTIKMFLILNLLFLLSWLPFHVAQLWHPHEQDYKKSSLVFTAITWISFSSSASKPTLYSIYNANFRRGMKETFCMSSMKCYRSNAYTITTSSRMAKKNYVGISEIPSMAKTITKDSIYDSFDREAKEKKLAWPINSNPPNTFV
UniProt P60842: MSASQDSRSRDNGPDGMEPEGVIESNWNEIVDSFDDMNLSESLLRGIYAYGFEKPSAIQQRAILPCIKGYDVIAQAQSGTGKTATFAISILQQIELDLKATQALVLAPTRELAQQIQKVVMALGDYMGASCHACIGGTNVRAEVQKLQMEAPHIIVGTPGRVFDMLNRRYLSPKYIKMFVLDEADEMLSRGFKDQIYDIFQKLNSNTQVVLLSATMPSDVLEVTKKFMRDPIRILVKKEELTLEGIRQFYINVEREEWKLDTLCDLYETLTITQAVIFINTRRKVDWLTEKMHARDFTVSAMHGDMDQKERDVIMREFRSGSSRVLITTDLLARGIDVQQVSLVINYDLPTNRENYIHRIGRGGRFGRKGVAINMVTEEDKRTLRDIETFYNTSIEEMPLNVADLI
UniProt Q14676: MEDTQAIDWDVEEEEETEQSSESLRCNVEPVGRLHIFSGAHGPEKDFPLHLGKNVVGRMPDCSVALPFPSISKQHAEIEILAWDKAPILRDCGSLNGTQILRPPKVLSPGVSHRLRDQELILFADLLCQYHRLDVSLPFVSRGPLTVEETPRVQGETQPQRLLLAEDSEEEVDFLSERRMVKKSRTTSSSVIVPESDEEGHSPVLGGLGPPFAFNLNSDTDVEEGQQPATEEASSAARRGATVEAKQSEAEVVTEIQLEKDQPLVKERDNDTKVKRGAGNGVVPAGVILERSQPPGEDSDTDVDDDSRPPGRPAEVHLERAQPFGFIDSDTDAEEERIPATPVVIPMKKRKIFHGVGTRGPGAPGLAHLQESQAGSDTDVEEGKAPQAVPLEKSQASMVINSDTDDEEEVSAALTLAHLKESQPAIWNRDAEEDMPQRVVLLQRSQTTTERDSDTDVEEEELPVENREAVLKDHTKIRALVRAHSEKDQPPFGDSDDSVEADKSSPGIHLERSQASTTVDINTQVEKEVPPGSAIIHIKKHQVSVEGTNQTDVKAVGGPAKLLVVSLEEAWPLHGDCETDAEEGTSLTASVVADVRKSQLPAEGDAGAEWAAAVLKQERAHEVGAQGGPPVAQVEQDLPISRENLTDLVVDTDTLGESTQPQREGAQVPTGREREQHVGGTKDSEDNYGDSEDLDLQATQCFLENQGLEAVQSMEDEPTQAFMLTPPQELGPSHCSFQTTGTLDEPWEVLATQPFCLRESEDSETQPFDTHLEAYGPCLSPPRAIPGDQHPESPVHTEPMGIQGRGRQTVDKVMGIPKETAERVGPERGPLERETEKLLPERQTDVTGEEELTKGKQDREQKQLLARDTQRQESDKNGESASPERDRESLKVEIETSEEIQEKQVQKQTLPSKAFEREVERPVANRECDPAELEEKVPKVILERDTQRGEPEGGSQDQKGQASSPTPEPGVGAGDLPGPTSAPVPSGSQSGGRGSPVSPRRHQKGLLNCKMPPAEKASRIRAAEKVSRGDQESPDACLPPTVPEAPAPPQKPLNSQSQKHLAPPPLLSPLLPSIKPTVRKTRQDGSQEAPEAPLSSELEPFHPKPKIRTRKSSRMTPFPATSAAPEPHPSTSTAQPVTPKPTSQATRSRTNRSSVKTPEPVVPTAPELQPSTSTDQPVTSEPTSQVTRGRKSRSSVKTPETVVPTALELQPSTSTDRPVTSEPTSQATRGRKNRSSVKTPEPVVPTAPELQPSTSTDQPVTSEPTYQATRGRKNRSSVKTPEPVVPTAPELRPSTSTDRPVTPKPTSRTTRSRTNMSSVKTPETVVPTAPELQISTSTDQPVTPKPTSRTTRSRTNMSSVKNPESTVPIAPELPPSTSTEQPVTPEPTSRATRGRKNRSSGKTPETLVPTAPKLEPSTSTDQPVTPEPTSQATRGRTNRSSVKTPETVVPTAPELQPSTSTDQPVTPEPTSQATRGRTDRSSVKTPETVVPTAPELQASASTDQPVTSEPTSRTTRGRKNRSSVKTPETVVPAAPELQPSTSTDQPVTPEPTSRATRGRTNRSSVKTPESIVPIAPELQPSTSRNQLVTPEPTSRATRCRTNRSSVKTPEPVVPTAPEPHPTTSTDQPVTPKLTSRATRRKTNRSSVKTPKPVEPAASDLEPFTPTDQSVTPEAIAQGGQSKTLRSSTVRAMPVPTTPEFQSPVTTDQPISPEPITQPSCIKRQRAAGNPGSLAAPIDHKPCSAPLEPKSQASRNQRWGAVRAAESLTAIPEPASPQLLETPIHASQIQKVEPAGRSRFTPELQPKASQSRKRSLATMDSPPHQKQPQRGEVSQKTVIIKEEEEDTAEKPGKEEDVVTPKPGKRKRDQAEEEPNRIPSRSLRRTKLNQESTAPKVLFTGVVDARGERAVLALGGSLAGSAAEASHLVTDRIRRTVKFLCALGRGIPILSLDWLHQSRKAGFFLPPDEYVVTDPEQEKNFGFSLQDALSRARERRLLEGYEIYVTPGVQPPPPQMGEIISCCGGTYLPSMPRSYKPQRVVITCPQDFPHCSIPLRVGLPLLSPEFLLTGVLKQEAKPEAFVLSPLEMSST

Results are given in words; binding and its absence hold for the method and conditions named. Binding seen in cells or lysates may run through a third protein. Some entries that bind do so weakly or less than the wild type.

For the assay, the target named is hemagglutinin (3xHA)-N terminally tagged human GPR19 receptor (human) (UniProt Q15760). Description: co-IP; anti-HA immunoprecipitation of HA-tagged GPR19 from transfected HEK293 cells in low-detergent conditions, compared to mock transfected cells; blots of MDC1, PHB, CBR1, EIF4A1; control conditions and cells treated with Acesulfame K, low glucose or hydrogen peroxide.
Regarding EIF4A1 (from UniProt P60842 1-406), the binding entry was “binds”.
The same measure for “MDC1 (mediator of DNA damage checkpoint protein-1) (from UniProt Q14676 1-2089)”: “binds”; for B1: “binds”.

The values above are taken from PMC10218176.
